This experiment has as its target T1, Regulator of ribosome synthesis 1 (RRS1) (human (endogenous in BT-549 and MDA-MB-231)) (UniProt Q15050).
T1 sequence: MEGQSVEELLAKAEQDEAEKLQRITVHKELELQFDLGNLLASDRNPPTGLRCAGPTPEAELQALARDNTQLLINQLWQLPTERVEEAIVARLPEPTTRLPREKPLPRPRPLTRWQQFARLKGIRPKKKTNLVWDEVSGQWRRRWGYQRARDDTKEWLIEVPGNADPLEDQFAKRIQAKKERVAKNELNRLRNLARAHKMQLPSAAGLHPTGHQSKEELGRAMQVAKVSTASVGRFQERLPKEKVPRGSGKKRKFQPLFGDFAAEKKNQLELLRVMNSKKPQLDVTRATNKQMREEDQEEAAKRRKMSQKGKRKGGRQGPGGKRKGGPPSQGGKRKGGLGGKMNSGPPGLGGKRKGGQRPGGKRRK
Nature of the experiment: affinity purification with mass spectrometry; Co-IP combined with LC-MS/MS (in-gel trypsin digest, Orbitrap Elite); antibody and bait of the IP not stated.

Chains of the proteins cited; added tags and fusions are not shown. Residues count along the entry.
UniProt P11021, residues 19-654: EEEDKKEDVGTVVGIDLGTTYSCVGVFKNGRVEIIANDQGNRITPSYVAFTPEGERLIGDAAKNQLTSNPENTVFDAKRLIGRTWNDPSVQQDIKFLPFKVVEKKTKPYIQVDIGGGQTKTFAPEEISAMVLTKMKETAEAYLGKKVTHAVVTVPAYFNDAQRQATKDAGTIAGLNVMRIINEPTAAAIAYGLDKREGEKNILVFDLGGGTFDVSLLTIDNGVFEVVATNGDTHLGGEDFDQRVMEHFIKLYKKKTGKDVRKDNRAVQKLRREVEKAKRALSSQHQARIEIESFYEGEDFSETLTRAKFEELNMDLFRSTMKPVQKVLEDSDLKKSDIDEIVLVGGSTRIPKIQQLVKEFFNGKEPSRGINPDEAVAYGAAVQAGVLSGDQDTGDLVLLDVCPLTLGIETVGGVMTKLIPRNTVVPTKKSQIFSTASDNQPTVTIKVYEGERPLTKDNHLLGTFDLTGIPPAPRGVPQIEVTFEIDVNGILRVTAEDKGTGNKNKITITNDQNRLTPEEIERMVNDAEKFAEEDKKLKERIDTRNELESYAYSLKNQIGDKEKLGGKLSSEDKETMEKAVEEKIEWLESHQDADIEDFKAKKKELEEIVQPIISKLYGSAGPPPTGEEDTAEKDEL

No constants are given. Whether binding was seen depends on the method and setting. Binding seen in cells or lysates may run through a third protein. These calls come from enrichment with a bait or labelling near it, and not all partners need be listed.

Regarding “Glucose-Regulated Protein 78 (GRP78) (from UniProt P11021 19-654)”, the binding result was “binds”.

Source of the values: article PMC10934892.
